Measured values from publication PMC4237471.

Sequences of proteins named here, by UniProt entry; tags and fusion partners are left off. A change or cut given only in a name is not applied to a line headed by its entry.
UniProt O00499: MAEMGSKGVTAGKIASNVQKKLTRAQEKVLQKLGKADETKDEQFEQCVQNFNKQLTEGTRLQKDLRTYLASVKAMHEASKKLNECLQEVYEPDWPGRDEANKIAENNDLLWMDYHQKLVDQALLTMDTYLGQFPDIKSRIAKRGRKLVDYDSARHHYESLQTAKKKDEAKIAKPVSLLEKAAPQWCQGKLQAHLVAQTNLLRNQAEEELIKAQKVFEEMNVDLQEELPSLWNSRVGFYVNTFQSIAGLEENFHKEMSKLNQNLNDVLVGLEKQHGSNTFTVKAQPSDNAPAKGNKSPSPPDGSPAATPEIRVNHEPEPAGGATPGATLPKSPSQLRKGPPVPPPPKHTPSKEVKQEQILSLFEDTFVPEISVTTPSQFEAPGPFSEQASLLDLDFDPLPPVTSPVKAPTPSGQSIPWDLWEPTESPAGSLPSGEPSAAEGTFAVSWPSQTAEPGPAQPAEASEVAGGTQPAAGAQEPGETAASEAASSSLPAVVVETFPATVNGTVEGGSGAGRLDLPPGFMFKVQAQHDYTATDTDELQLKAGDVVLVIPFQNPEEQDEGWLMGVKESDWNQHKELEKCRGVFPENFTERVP
UniProt O08539: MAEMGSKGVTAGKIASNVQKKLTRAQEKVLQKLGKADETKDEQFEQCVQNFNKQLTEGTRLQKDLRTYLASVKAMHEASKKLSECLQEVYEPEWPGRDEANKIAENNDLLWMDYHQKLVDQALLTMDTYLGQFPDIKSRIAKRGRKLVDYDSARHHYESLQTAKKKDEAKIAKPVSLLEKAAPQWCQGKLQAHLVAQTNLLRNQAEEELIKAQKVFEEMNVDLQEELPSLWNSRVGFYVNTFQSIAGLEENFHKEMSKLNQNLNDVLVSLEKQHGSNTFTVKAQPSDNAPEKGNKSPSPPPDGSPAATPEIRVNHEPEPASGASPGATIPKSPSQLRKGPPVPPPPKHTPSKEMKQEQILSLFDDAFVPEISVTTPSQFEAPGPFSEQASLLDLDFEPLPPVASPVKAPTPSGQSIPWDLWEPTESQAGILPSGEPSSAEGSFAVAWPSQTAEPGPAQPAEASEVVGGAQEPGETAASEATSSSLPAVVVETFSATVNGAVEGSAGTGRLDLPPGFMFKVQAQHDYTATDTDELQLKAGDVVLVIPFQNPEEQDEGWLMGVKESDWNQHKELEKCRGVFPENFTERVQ
UniProt Q91YD9: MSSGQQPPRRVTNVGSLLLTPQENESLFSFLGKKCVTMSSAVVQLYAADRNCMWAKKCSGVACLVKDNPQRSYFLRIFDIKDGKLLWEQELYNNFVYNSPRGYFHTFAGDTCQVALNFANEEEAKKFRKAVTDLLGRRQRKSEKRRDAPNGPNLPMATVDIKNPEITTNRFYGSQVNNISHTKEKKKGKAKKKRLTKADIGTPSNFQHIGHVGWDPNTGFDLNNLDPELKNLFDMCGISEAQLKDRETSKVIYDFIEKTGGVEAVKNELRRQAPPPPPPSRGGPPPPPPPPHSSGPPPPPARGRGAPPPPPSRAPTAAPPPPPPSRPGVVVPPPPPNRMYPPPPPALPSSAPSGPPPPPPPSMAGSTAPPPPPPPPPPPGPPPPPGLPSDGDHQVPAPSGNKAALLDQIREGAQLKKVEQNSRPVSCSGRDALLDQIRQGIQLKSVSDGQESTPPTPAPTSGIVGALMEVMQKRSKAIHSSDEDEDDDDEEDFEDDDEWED

What was measured:
[1] = target: GFP-tagged human amph2-R154Q (human) (UniProt O00499); assay: co-IP; GFP-Trap (Chromotek) precipitation of GFP-tagged amph2 constructs expressed in C2C12 cells; Western blot for endogenous N-WASP and GFP
[2] = target: GFP-tagged human amph2-D151N (human) (UniProt O00499); assay: as above
[3] = target: amphiphysin-2 (amph2), endogenous (mouse (endogenous in primary myofibers and C2C12)) (UniProt O08539); assay: co-IP; endogenous amph2 precipitated with anti-amph2 mAb cross-linked to Dynabeads protein G, RIPA lysates of primary myofibers (agrin 10 days) and C2C12 myotubes (legend of Fig 3B also names mouse muscle); Western blot for N-WASP
[4] = target: N-WASP, endogenous (mouse cells) (mouse (endogenous in primary myofibers and C2C12)) (UniProt Q91YD9); assay: co-IP; endogenous N-WASP precipitated with anti-N-WASP mAb cross-linked to Dynabeads protein G, RIPA lysate of primary myofibers; Western blot for amph2

| binding [1] | binding [2] | binding [3] | binding [4] | Substance |
| --- | --- | --- | --- | --- |
| binds | binds | binds |  | N-WASP, endogenous (mouse cells) (from UniProt Q91YD9 1-501) |
|  |  |  | binds | amphiphysin-2 (amph2), endogenous (from UniProt O08539-2) |

No constants are given. Whether binding was seen depends on the method and setting. In cells and extracts the contact can be indirect. Binding calls can cover weak binding; strength is not graded here.
